Earlier results in US20100203156A1, “XENON AS A TREATMENT FOR HEMOGLOBINOPATHY” (priority 2009, published 2010).
At least one compound was matched to its structure with a doubt left.

Chains of the proteins cited; added tags and fusions are not shown. Residues count along the entry.
UniProt P68871, 2-147 limits assumed: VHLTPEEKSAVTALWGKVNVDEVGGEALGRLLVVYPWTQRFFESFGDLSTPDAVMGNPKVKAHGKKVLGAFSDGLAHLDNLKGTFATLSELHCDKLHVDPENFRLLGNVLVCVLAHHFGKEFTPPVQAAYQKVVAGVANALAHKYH
UniProt P69905, 2-142 limits assumed: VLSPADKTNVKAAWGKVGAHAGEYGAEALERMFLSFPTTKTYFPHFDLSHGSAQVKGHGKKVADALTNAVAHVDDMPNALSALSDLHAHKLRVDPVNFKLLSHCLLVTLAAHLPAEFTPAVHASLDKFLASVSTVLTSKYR

Columns and labels:
hemoglobin = hemoglobin (Homo sapiens, UniProt P68871+P69905); settings: cited from earlier work
[1] = cited from earlier work
[2] = cited from earlier work; remark: listed apart in the source

In the case of `[C-]#[O+]` [CO], the “Kon (association rate for hemoglobin)” value (hemoglobin) is listed as 4.6×106 M-1S-1.

In the case of `[Xe]` [xenon], the “toxic, allergic, mutagenic, fetotoxic or carcinogenic properties” value [1] is listed as “failed to reveal any toxic, allergic, mutagenic, fetotoxic or carcinogenic properties”, the blood-gas partition coefficient [2] is listed as 0.115 and the “Kon (association rate for hemoglobin)” value (hemoglobin) is listed as 6×107 M-1S-1.
